In article PMC8635029 (Frontiers in Pharmacology, 2021):
Counter-ions that a name gives are not always drawn.

Tested on: ICR mice
Experiment: Acetic acid-induced writhing test
Type: in vivo
Conditions: 10 mg/kg s.c., 30 min post-dosing
Procedure: ICR mice (half male and half female) were used in this assay. […] A writhe was defined as a wave of contraction of the abdominal musculature followed by extension of the hind limbs ([Wang et al., 2018]). The percentage inhibition of writhes was calculated by the following formula: % antinociception = (Nv−Nt)/Nv × 100, where Nv is the number of writhes in vehicle group and Nt is the number of writhes in treatment groups.

## CN1CC[C@]23c4c5ccc(O)c4O[C@H]2[C@@H](O)C=C[C@H]3[C@H]1C5 [morphine, morphine sulfate]
  effect on acetic acid-induced pain behaviors: completed suppressed
